# Measurements as given in the supplement of paper PMC8728848.
# This is one part of the list.
# B1: RbmA (Vibrio cholerae), A0A2H4NFB8 (protein)
# chain: MSNFKGSIMNKRHYYLASCLALLFSTASYAEVDCELQPVIEANLSLNQNQLASNGGYISSQLGIRNESCETVKFKYWLSIKGPEGIYFPAKAVVGVDTAQQESDALTDGRMLNVTRGFWVPEYMADGKYTVSLQVVAENGEVFKANQEFVKGGDLNSLPELNGLTIDIKNQFGINSVESTGGFVPFTIDLNNGREGEAKVEFWMTAVGPDGLIIPVHSREKWMIIAGNTFSKVRGINFDKSYPAGEYTINAQVVDIVSGERVEQLMTVVKK
# Columns and labels:
# Experiment in all cases: glycan array binding signal (z-score within array); higher = stronger binding
# Settings in all cases: glycan notation: IUPAC condensed, linker removed
# [1] = target: Neu5Ac(a2-6)GlcNAc(b1-4)GlcNAc(b1-4)GlcNAc
# Outline: (§1)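 Negative Z-scores can be read as non-binding. The Z-score is calculated within each array and then averaged across arrays of one protein sequence at different concentrations or buffers and across linkers. Arrays, 3228 in all, were curated from the Consortium for Functional Glycomics database and kept only where the protein sequence was available.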
# Neu5Ac(a2-8)Neu5Ac = target: Neu5Ac(a2-8)Neu5Ac
# Outline: as §1
# [2] = target: Neu5Ac(a2-8)Neu5Ac(a2-3)Gal(b1-3)GalNAc(b1-4)[Neu5Ac(a2-3)]Gal(b1-4)Glc
# Outline: as §1
# [3] = target: Neu5Ac(a2-8)Neu5Ac(a2-3)Gal(b1-3)GalNAc(b1-4)[Neu5Ac(a2-8)Neu5Ac(a2-3)]Gal(b1-4)Glc
# Outline: as §1
# [4] = target: Neu5Ac(a2-8)Neu5Ac(a2-3)Gal(b1-4)Glc
# Outline: as §1
# [5] = target: Neu5Ac(a2-8)Neu5Ac(a2-3)Gal(b1-4)GlcNAc
# Outline: as §1
# [6] = target: Neu5Ac(a2-8)Neu5Ac(a2-3)[Gal(b1-3)GalNAc(b1-4)]Gal(b1-4)Glc
# Outline: as §1
# [7] = target: Neu5Ac(a2-8)Neu5Ac(a2-3)[GalNAc(b1-4)]Gal(b1-4)Glc
# Outline: as §1
# [8] = target: Neu5Ac(a2-8)Neu5Ac(a2-8)Neu5Ac
# Outline: as §1
# [9] = target: Neu5Ac(a2-8)Neu5Ac(a2-8)Neu5Ac(a2-3)Gal(b1-4)Glc
# Outline: as §1
# [10] = target: Neu5Ac(a2-8)Neu5Ac(a2-8)Neu5Ac(a2-3)[Gal(b1-3)GalNAc(b1-4)]Gal(b1-4)Glc
# Outline: as §1
# [11] = target: Neu5Ac(a2-8)Neu5Ac(a2-8)Neu5Ac(a2-3)[GalNAc(b1-4)]Gal(b1-4)Glc
# Outline: as §1
# [12] = target: Neu5Ac(a2-8)Neu5Ac(a2-8)Neu5Ac(a2-8)Neu5Ac(a2-3)[GalNAc(b1-4)]Gal(b1-4)Glc
# Outline: as §1
# [13] = target: Neu5Ac(a2-8)Neu5Gc(a2-3)Gal(b1-4)GlcNAc
# Outline: as §1
# [14] = target: Neu5Ac(b2-6)Gal(b1-4)GlcNAc
# Outline: as §1
# Neu5Ac(b2-6)GalNAc = target: Neu5Ac(b2-6)GalNAc
# Outline: as §1
# [15] = target: Neu5Ac9Ac(a2-3)Gal(b1-4)GlcNAc
# Outline: as §1
# [16] = target: Neu5Ac9Ac(a2-6)Gal(b1-4)GlcNAc
# Outline: as §1
# [17] = target: Neu5Gc(a2-3)Gal(b1-3)GlcNAc
# Outline: as §1
# [18] = target: Neu5Gc(a2-3)Gal(b1-3)[Fuc(a1-4)]GlcNAc
# Outline: as §1
# Neu5Gc(a2-3)Gal(b1-4)Glc = target: Neu5Gc(a2-3)Gal(b1-4)Glc
# Outline: as §1
# [19] = target: Neu5Gc(a2-3)Gal(b1-4)GlcNAc
# Outline: as §1
# [20] = target: Neu5Gc(a2-3)Gal(b1-4)GlcNAc(b1-3)Gal(b1-4)GlcNAc(b1-2)Man(a1-3)[Neu5Gc(a2-3)Gal(b1-4)GlcNAc(b1-3)Gal(b1-4)GlcNAc(b1-2)Man(a1-6)]Man(b1-4)GlcNAc(b1-4)GlcNAc
# Outline: as §1
# [21] = target: Neu5Gc(a2-3)Gal(b1-4)[Fuc(a1-3)]GlcNAc
# Outline: as §1
# [22] = target: Neu5Gc(a2-6)Gal(b1-4)GlcNAc
# Outline: as §1
# Neu5Gc(a2-6)GalNAc = target: Neu5Gc(a2-6)GalNAc
# Outline: as §1
# [23] = target: Neu5Gc(a2-8)Neu5Ac(a2-3)Gal(b1-4)GlcNAc
# Outline: as §1
# [24] = target: Neu5Gc(a2-8)Neu5Gc(a2-3)Gal(b1-4)GlcNAc
# Outline: as §1
# [25] = target: Neu5Gc(a2-8)Neu5Gc(a2-3)Gal(b1-4)GlcNAc(b1-3)Gal(b1-4)GlcNAc
# Outline: as §1
# [26] = target: Neu5Gc(a2-8)Neu5Gc(a2-6)Gal(b1-4)GlcNAc
# Outline: as §1
# [27] = target: Neu5Gc(b2-6)Gal(b1-4)GlcNAc
# Outline: as §1
binder,measurement,setting,value
B1,glycan array binding signal (z-score),[1],-0.407
same,glycan array binding signal (z-score),Neu5Ac(a2-8)Neu5Ac,-0.531
same,glycan array binding signal (z-score),[2],1.75
same,glycan array binding signal (z-score),[3],0.072
same,glycan array binding signal (z-score),[4],0.755
same,glycan array binding signal (z-score),[5],0.05
same,glycan array binding signal (z-score),[6],-0.461
same,glycan array binding signal (z-score),[7],-0.02
same,glycan array binding signal (z-score),[8],-0.718
same,glycan array binding signal (z-score),[9],-0.665
same,glycan array binding signal (z-score),[10],-0.211
same,glycan array binding signal (z-score),[11],-0.287
same,glycan array binding signal (z-score),[12],0.581
same,glycan array binding signal (z-score),[13],-0.772
same,glycan array binding signal (z-score),[14],-0.805
same,glycan array binding signal (z-score),Neu5Ac(b2-6)GalNAc,-0.014
same,glycan array binding signal (z-score),[15],-0.939
same,glycan array binding signal (z-score),[16],-0.608
same,glycan array binding signal (z-score),[17],-0.801
same,glycan array binding signal (z-score),[18],1.45
same,glycan array binding signal (z-score),Neu5Gc(a2-3)Gal(b1-4)Glc,0.337
same,glycan array binding signal (z-score),[19],0.734
same,glycan array binding signal (z-score),[20],1.1
same,glycan array binding signal (z-score),[21],-0.631
same,glycan array binding signal (z-score),[22],-0.715
same,glycan array binding signal (z-score),Neu5Gc(a2-6)GalNAc,-1.03
same,glycan array binding signal (z-score),[23],-0.254
same,glycan array binding signal (z-score),[24],-0.291
same,glycan array binding signal (z-score),[25],0.128
same,glycan array binding signal (z-score),[26],-0.769
same,glycan array binding signal (z-score),[27],-0.615

# Reformatted with bars between the fields: part of the list above
binder | measurement | setting | value
B1 | glycan array binding signal (z-score) | [1] | -0.407
same | glycan array binding signal (z-score) | Neu5Ac(a2-8)Neu5Ac | -0.531
same | glycan array binding signal (z-score) | [2] | 1.75
same | glycan array binding signal (z-score) | [3] | 0.072
same | glycan array binding signal (z-score) | [4] | 0.755
same | glycan array binding signal (z-score) | [5] | 0.05
same | glycan array binding signal (z-score) | [6] | -0.461
same | glycan array binding signal (z-score) | [7] | -0.02
